Experimental data published in article PMC12747536.
No constants are given. Whether binding was seen depends on the method and setting. Binding seen in cells or lysates may run through a third protein. Some entries that bind do so weakly or less than the wild type. Tags and fused reporters may be left off the sequences shown.

Amino acid sequences for entries named in this document (tags omitted).
UniProt Q8WXF0: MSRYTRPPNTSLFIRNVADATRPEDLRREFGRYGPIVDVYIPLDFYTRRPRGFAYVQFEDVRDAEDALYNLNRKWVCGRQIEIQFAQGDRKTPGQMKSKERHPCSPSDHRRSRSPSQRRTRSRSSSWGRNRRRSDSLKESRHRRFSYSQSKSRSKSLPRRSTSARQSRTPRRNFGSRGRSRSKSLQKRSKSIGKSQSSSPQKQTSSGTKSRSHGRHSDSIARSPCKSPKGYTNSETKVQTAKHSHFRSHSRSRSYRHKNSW
UniProt O15042: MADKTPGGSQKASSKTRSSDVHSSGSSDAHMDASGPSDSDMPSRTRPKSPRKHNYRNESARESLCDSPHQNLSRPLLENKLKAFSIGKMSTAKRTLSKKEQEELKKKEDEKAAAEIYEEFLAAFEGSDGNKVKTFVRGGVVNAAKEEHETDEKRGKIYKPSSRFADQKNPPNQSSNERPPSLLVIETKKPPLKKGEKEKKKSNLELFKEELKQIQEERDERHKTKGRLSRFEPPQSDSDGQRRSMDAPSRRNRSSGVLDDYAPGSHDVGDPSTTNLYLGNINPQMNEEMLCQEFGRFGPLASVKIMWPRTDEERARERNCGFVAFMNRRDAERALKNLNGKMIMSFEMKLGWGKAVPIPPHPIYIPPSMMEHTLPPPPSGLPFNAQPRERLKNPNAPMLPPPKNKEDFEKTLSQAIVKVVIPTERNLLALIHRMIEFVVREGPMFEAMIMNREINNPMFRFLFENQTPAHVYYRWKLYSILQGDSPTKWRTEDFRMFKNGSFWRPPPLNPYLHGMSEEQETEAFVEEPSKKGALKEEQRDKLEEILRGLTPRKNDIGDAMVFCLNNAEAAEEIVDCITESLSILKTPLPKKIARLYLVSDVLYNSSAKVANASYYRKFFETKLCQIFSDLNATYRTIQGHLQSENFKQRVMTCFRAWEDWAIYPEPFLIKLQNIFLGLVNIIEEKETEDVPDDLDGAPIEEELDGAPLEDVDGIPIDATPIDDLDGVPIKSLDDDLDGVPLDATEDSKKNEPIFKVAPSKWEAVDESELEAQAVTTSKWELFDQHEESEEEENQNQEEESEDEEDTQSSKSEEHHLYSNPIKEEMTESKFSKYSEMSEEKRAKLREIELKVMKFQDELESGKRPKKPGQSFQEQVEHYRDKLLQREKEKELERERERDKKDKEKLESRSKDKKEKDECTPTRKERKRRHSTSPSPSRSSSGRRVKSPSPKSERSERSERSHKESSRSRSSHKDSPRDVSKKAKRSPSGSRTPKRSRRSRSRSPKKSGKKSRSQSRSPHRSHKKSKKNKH

Target: T1, GFP-tagged C9ORF50 (pCMV-C9ORF50-GFP) (not stated (human or mouse cDNA cloned)) (UniProt Q5SZB4)
T1 sequence: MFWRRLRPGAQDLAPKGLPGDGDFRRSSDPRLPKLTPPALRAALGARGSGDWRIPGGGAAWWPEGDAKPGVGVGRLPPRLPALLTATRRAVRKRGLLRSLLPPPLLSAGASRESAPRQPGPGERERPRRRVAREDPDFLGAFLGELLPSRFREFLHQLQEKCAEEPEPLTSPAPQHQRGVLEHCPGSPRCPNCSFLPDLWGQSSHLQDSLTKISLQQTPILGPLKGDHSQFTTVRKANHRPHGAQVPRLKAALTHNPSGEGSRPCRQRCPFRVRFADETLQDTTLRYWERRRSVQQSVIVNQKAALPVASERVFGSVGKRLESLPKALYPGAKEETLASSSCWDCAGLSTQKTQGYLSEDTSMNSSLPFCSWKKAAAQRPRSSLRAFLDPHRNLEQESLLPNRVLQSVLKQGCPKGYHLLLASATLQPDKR
Experiment: co-IP; HEK293T cells transfected with pCMV-C9ORF50-GFP or pCMV-GFP; RIPA lysate (2 mg protein) immunoprecipitated with 10 ug rabbit anti-GFP antibody (Pierce Classic Magnetic IP/Co-IP kit); immunoblot with anti-U2SURP and anti-SRSF12

| binding | Substance |
| --- | --- |
| binds | SRSF12 (from UniProt Q8WXF0 1-261) |
| binds | U2SURP (from UniProt O15042 1-1029) |
